Measured values from article PMC9002611.
These are yes or no findings as the source states them, for the method shown. Binding seen in cells or lysates may run through a third protein. Some binding calls cover weakened binding; strength is not graded here. Tags and fused reporters may be left off the sequences shown.

Target: T1, Strep-tagged HybG (native, HybGWT) (E. coli) (UniProt P0AAM7)
T1 sequence: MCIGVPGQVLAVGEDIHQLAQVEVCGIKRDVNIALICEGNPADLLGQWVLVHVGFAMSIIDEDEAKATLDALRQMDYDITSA
Test: pull-down; single-step Strep-tactin affinity enrichment of the Strep-tagged chaperone from extracts of anaerobically grown SHH228 cells co-producing HypD; elution fractions (10 ug protein) on SDS-PAGE, Coomassie stain, densitometry (ImageQuant TL); apparent stoichiometries

binding: binds
B1: HypD (untagged) (protein, UniProt P24192 1-373)
chain: MRFVDEYRAPEQVMQLIEHLRERASHLSYTAERPLRIMEVCGGHTHAIFKFGLDQLLPENVEFIHGPGCPVCVLPMGRIDTCVEIASHPEVIFCTFGDAMRVPGKQGSLLQAKARGADVRIVYSPMDALKLAQENPTRKVVFFGLGFETTMPTTAITLQQAKARDVQNFYFFCQHITLIPTLRSLLEQPDNGIDAFLAPGHVSMVIGTDAYNFIASDFHRPLVVAGFEPLDLLQGVVMLVQQKIAAHSKVENQYRRVVPDAGNLLAQQAIADVFCVNGDSEWRGLGVIESSGVHLTPDYQRFDAEAHFRPAPQQVCDDPRARCGEVLTGKCKPHQCPLFGNTCNPQTAFGALMVSSEGACAAWYQYRQQESEA
